The record followed here is PMC8446043.

This assay deals with GST fusion construct encompassing the two WW domains of Hecw (636-834aa) (Drosophila). Nature of the assay: affinity purification with mass spectrometry; 2 uM GST-WW (Hecw 636-834) as bait incubated with 1 mg of S2 lysate for 2 h at 4 °C in YY buffer (50 mM Na-HEPES pH 7.5, 150 mM NaCl, 1 mM EDTA, 1 mM EGTA, 10% glycerol, 1% triton-100), four washes, LC-MS/MS; only the target purified.

These are yes or no findings as the source states them, for the method shown. In cells and extracts the contact can be indirect. A yes stands for co-enrichment or nearness to the bait. Other partners may have been found.

B1: Hrp48, endogenous in S2 cells (protein, UniProt P48809 1-421)
chain: MEEDERGKLFVGGLSWETTQENLSRYFCRFGDIIDCVVMKNNESGRSRGFGFVTFADPTNVNHVLQNGPHTLDGRTIDPKPCNPRTLQKPKKGGGYKVFLGGLPSNVTETDLRTFFNRYGKVTEVVIMYDQEKKKSRGFGFLSFEEESSVEHVTNERYINLNGKQVEIKKAEPRDGSGGQNSNNSTVGGAYGKLGNECSHWGPHHAPINMMQGQNGQMGGPPLNMPIGAPNMMPGYQGWGTSPQQQQYGYGNSGPGSYQGWGAPPGPQGPPPQWSNYAGPQQTQGYGGYDMYNSTSTGAPSGPSGGGSWNSWNMPPNSAGPTGAPGAGAGTATDMYSRAQAWATGGPSTTGPVGGMPRTGPGNSASKSGSEYDYGGYGSGYDYDYSNYVKQEGASNYGAGPRSAYGNDSSTQPPYATSQAV
For the molecule B1, the binding entry is reported as “binds”.
